From PubChem BioAssay AID2551 (National Center for Advancing Translational Sciences (NCATS), 2010)
The campaign covered roughly 310,000 compounds. About 17,000 (5.5%) were called active. The inconclusive results got no clear call from the source; some entries with a clear call stand among them for comparison. Calls follow the shape of the dose curve; as a rule, active = well fitted inhibition curve with a large enough effect; inconclusive = small, poorly fitted or top-dose-only effect, or effect the other way; inactive = no such curve, though single readings can be large or run the other way. Where the call is inconclusive, the potency comes from a doubtful curve fit.

By UniProt entry, the sequences of proteins in these tests, tags left out. Where a name states a change or a piece, a line headed by the entry shows the natural chain unless it says otherwise.
UniProt P51450: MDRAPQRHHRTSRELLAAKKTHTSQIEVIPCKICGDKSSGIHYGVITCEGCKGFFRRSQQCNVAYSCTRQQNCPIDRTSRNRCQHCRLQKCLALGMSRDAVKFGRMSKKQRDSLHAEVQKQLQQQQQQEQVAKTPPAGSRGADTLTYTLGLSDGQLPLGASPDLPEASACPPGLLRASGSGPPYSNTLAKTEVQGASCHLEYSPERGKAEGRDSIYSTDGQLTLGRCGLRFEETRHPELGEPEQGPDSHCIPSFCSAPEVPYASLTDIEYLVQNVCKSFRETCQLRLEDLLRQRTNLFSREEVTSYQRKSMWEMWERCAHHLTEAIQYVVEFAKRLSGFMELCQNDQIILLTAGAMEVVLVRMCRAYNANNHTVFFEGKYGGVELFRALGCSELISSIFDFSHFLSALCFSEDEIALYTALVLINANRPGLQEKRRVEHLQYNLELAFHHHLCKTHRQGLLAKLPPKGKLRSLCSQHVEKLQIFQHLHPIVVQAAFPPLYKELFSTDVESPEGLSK

What follows are compounds tested against Nuclear receptor ROR-gamma (Mus musculus) (UniProt P51450) (assay: qHTS for inhibitors of ROR gamma transcriptional activity). Settings: Drosophila S2 Gal4-RORgamma UAS-luciferase reporter, 20 h; series mostly up to 53.6 µM.
In short: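 A Gal4/UAS one-hybrid system in insect cells: metallothionein-promoter Gal4–ROR gamma fusion plus Photinus luciferase reporter. Copper sulfate 700 uM final, 20 hr ambient incubation, luminescent detection after 10 min with reagent.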
Also: nearly all actives have a fitted effect of over 60% in size.
Potency is read from the fitted curve at half-maximal effect.

| SMILES | Potency |
| --- | --- |
| O=C(COC(=O)c1ccco1)Nc1nc2ccc([N+](=O)[O-])cc2s1 | inconclusive: 15.8 µM [activator, single point] |
| O=c1[nH]c(/C=C/c2ccccn2)nc2ccccc12 | inconclusive: 35.5 µM [inhibitor, single point] |
| Cc1cc(C)nc(N/N=C/C2=C(O)CC(c3ccc(F)cc3)CC2=O)n1 (centres undefined) | inconclusive: 0.794 µM [inhibitor, full curve] |
| COCc1nnc(NC(=O)CSc2ccccc2)s1 | inconclusive: 35.5 µM [inhibitor, single point] |
| CCN1CCN(Cc2ccc(NC(=O)c3ccc(C)c(NC(=O)C(=O)c4c[nH]c5ccccc45)c3)cc2C(F)(F)F)CC1 | active: 12.6 µM |
| CCN1C/C(=C/c2ccc(OC)c(O)c2)C(=O)/C(=C/c2ccc(OC)c(O)c2)C1 | active: 6.31 µM |
| CC(=O)Nc1ccc(C(=O)N/C(=C/c2ccccc2)C(=O)N2CCCCC2)cc1 | inactive |
| CC(=O)Nc1ccc(C(=O)Nc2ccc3c(c2)OCO3)cc1 | inconclusive: 25.1 µM [activator, single point] |
| COc1cccc(NC(=O)C2CC(=O)N/C(=N/NC(=O)c3ccc(C)cc3)S2)c1 (centres undefined) | active: 6.31 µM |
| CCCCN(CC)CCNC(=O)c1cc2c(C)nc3ccccc3c2o1 | inactive |
| Cc1ccc(CSCCNS(C)(=O)=O)cc1 | inconclusive: 12.6 µM [activator, single point] |
| O=C(/C=C/c1ccco1)N1CCN(c2ccccc2)CC1 | inactive |
| O=C(N/N=C\C=C\c1ccc2c(c1)OCO2)c1ccc(F)cc1 | active: 2.24 µM |
| CCC(=O)N1CCN(c2ccc(NC(=O)COc3ccc(CC)cc3)cc2)CC1 | inactive |
| O=S(=O)(CCN1CCN(C(c2ccccc2)c2ccccc2)CC1)C(F)(F)F | inconclusive: 35.5 µM [inhibitor, single point] |
| O=C1CN(C(=O)c2c(F)cccc2F)C(c2ccccc2)c2cc(Br)ccc2N1 (centres undefined) | inconclusive: 12.6 µM [activator, single point] |
| Cc1cccc(N2CCN(c3ccc(N4C(=O)CCCC4=O)cc3[N+](=O)[O-])CC2C)c1 (centres undefined) | inconclusive: 31.6 µM [activator, single point] |
| COc1ccc(N2CCN(C(=O)CSc3nnc(-c4cc5ccccc5cc4O)n3C)CC2)cc1 | inconclusive: 15.8 µM [activator, single point] |
| CCN(CC)S(=O)(=O)c1cccc(-c2nnc(SCCOc3ccccc3)o2)c1 | inactive |
| CN(C)S(=O)(=O)c1cccc(NC(=O)c2cncc(Br)c2)c1 | inconclusive: 0.562 µM [activator, single point] |
| COc1ccc(/C=C/C(=O)N2CCCc3ccccc32)cc1 | inconclusive: 20 µM [inhibitor, single point] |
| O=C(CCS(=O)(=O)Cc1ccc(Cl)cc1)NCCCN1CCN(c2ccccc2F)CC1 | inactive |
| COc1cccc(Nc2nc3ccc(OC)cc3s2)c1 | active: 11.2 µM |
| Cc1ccc(CSC(Nc2ccc(F)cc2)=C(C#N)C#N)cc1 | inconclusive: 35.5 µM [inhibitor, single point] |
| COc1ccc(N(CC(=O)Nc2ccc(C)cc2C)S(=O)(=O)c2c(C)n[nH]c2C)cc1 | inactive |

| SMILES | Potency |
| --- | --- |
| CCn1cc(/C=C/C(=O)Nc2c(C)nn(Cc3ccccc3)c2C)cn1 | inconclusive: 3.16 µM [activator, partial curve] |
| CCCNC(=O)OC[C@H]1O[C@H](CCO/N=C/C[C@@H]2C=C[C@H](OC(C)=O)[C@@H](COC(C)=O)O2)C=C[C@@H]1Oc1ccc(OC)cc1 | inconclusive: 2.82 µM [activator, full curve, poor fit] |
| O=C(N/N=C/C(Br)=C\c1ccccc1)c1cccs1 | inactive |
| O=C(NC(=S)N1CCCCCC1)c1ccc(Cl)cc1Cl | active: 0.355 µM |
| CCN(CC)c1ccc(-c2sc(Nc3ccccc3)n[n+]2-c2ccc(F)cc2)cc1 | active: 10 µM |
| COc1ccccc1-n1cc(-c2ccccc2)c2c(=S)nc[nH]c21 | active: 1 µM |
| O=c1c2c(-c3ccc(Cl)cc3)csc2ncn1/N=C/c1cccc([N+](=O)[O-])c1O | inconclusive: 35.5 µM [inhibitor, single point] |
| O=c1c2ccccc2c(C=Nc2ccc(O)cc2)c(O)n1-c1nccs1 | inactive |
| CN(Cc1ccc(F)cc1)Cc1nc(-c2cnccn2)no1 | inactive |
| CS(=O)(=O)NNC(=O)c1csc(Cc2c(Cl)sc3ccc(Cl)cc23)n1 | inactive |
| COc1ccc(-c2nnc(SCC(=O)Nc3ncc(C)s3)n2-c2ccccc2)cc1OC | inconclusive: 3.98 µM [inhibitor, single point] |
| CCc1ccc(/C=N/NC(=O)c2cc(C3CC3)nc3ccc(Br)cc23)s1 | active: 2.24 µM |
| Cc1ccc2c(c1)Sc1ccccc1CC2=O | inconclusive: 2.24 µM [activator, full curve, poor fit] |
| COc1ccc(CC(=O)N2CCN(c3ccccn3)CC2)cc1 | inconclusive: 0.316 µM [activator, full curve, poor fit] |
| COc1cccc(-c2nn(-c3ccccc3)cc2CN(C)C(C)c2ccncn2)c1 (centres undefined) | inconclusive: 12.6 µM [inhibitor, partial curve] |
| CC(C)(C)c1ccc(C(CC(=O)O)NC(=O)C23CC4CC(CC(C4)C2)C3)cc1 (centres undefined) | inactive |
| COc1ccc(NS(=O)(=O)c2ccc(O)c(C(=O)OCC(=O)NC(C)C3CC4CCC3C4)c2)cc1 (centres undefined) | inconclusive: 7.94 µM [activator, partial curve] |
| O=C(Nc1ccccc1Cl)c1cnccn1 | inactive |
| COc1ccc(Br)cc1S(=O)(=O)N1CCN=C1c1ccccc1 | inactive |
| Cc1ccc(C(=O)N2CCCC(Nc3ccc(F)c(F)c3)C2)cn1 (centres undefined) | inactive |
| O=C(Cc1ccc([N+](=O)[O-])cc1)Nc1ccc2c(c1)CCC2 | inactive |
| O=C1C(C=Nc2ccccc2)=C(O)c2ccccc21 | inconclusive: 22.4 µM [inhibitor, single point] |
| CCOC(=O)c1ccc(-c2ccc(/C=N/NC(=O)c3cncc(Br)c3)o2)cc1 | inconclusive: 1.41 µM [inhibitor, partial curve] |
| O=C(/C=C/c1ccc(F)cc1)Nc1cc(S(=O)(=O)N2CCOCC2)ccc1N1CCCC1 | inconclusive: 11.2 µM [activator, partial curve, poor fit] |
| COc1cc(C(CCN2CCCC2)c2c(OC)cc(OC)c3c2OC(=O)CC3c2ccc(N(C)C)cc2)cc(OC)c1OC (centres undefined) | inactive |

Copied from the list.
Under Potency, O=C(Cc1ccc([N+](=O)[O-])cc1)Nc1ccc2c(c1)CCC2 reads inactive
Under Potency, CCn1cc(/C=C/C(=O)Nc2c(C)nn(Cc3ccccc3)c2C)cn1 reads inconclusive: 3.16 µM [activator, partial curve]

Shown bar-delimited: 3 of the compounds above
SMILES | Potency
COc1ccc(N2CCN(C(=O)CSc3nnc(-c4cc5ccccc5cc4O)n3C)CC2)cc1 | inconclusive: 15.8 µM [activator, single point]
COc1ccc(NS(=O)(=O)c2ccc(O)c(C(=O)OCC(=O)NC(C)C3CC4CCC3C4)c2)cc1 (centres undefined) | inconclusive: 7.94 µM [activator, partial curve]
CCOC(=O)c1ccc(-c2ccc(/C=N/NC(=O)c3cncc(Br)c3)o2)cc1 | inconclusive: 1.41 µM [inhibitor, partial curve]

Next entries

| SMILES | Potency |
| --- | --- |
| S=c1[nH]nc(Cc2sc(-c3ccccc3)nc2-c2ccccc2)o1 | active: 11.2 µM |
| COc1ccc(Cc2nnc(NC(=O)c3ccccc3F)s2)cc1 | inconclusive: 35.5 µM [activator, single point] |
| CCOC(=O)c1c(-c2ccccc2)csc1NC(=S)N(CC)CC | inconclusive: 1.26 µM [inhibitor, full curve, poor fit] |
| Nc1ccc(C(=O)Nc2nc3ccccc3s2)cc1 | inconclusive: 12.6 µM [inhibitor, single point] |
| Cc1cccc(NC(=S)NC2CC3CCCC(C2)N3CC(C)C)c1 (centres undefined) | inconclusive: 3.98 µM [inhibitor, single point] |
| CCOc1ccc(CN(C)CC(=O)Nc2ccc3c(c2)CCC3)cc1OC | inconclusive: 35.5 µM [inhibitor, single point] |
| CN(Cc1ccc(F)cc1Cl)S(=O)(=O)c1cccs1 | inactive |
| Cc1cc(NC(=O)CSc2ncccn2)no1 | inconclusive: 3.16 µM [activator, single point] |
| CCc1ccc(OCC(=O)NC(NC(=S)Nc2ccc(C)cc2C)C(Cl)(Cl)Cl)cc1 (centres undefined) | active: 10 µM |
| Cc1ccccc1OCC(=O)N(Cc1cccc(F)c1)C1CCS(=O)(=O)C1 (centres undefined) | inactive |
| COc1ccc(CNC(=O)C(=O)c2cn(CC(=O)N3CCOCC3)c3ccccc23)cc1 | inconclusive: 14.1 µM [activator, single point] |
| Cc1ccc(-n2c(-c3cccnc3)n[nH]c2=S)c(C)c1 | inconclusive: 35.5 µM [inhibitor, single point] |
| CN(C)c1ccc(/C=N/NC(=O)CNC(=O)/C=C/c2ccco2)cc1 | inconclusive: 22.4 µM [activator, single point] |
| O=C(CN1CCc2ccccc2C1)Nc1cc(S(=O)(=O)N2CCOCC2)ccc1N1CCOCC1 | inconclusive: 25.1 µM [activator, single point] |
| CC(C)(C)NC(=S)NCC1CC1 | active: 7.08 µM |
| S=C(NCc1ccccc1)N1CCc2ccccc2C1 | inconclusive: 35.5 µM [inhibitor, single point] |
| CCOc1ccc(Cc2n[nH]c(=S)n2N)cc1 | inactive |
| Cc1nn(-c2ccccc2)c(C)c1NS(=O)(=O)c1ccccc1 | inconclusive: 0.562 µM [inhibitor, full curve, poor fit] |
| CCN(CC)C(=O)Nc1cnc2ccccc2c1 | inconclusive: 0.0045 µM [activator, full curve, poor fit] |
| OCCC1CN(Cc2nc(-c3ccccc3)cs2)CCN1C1CCCC1 (centres undefined) | inactive |
| COc1ccccc1N1CCN(C(c2cccs2)C(C)NS(=O)(=O)c2ccccc2)CC1 (centres undefined) | inconclusive: 31.6 µM [activator, single point] |
| Cc1ccc(-c2noc(COc3ccc4c(c3)OCO4)n2)cc1 | inconclusive: 0.112 µM [activator, single point] |
| CN(c1ccccc1)c1cc(=O)[nH]c(=O)[nH]1 | inactive |
| Cc1nc(N(C)Cc2ccccc2)c2c(C)c(C)sc2n1 | active: 20 µM |
